Results as given in the supplement of paper PMC4604168 (melanoma cell lines).
The other results are listed elsewhere or left out. Single values are uncertain, as repeats are few or missing.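 The apoptosis fraction was the count of cleaved-PARP antibody-stained nuclei relative to all DNA-stained nuclei, imaged in 1,536-well plates. Screening doses were set so most cells survived, and baseline and induced cleaved-PARP levels vary greatly across cell lines.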

tested on: UACC62; test: cleaved PARP positive nuclei fraction relative to DMSO control; melanoma cells; higher = more apoptosis; conditions: library dose: low library concentration; 72 h

Row | Structure (SMILES) | cleaved PARP positive nuclei fraction
1 | CC(=O)c1c(C)c2cnc(Nc3ccc(N4CCNCC4)cn3)nc2n(C2CCCC2)c1=O [palbociclib] + C[C@]1(c2nc3c(C(N)=O)cccc3[nH]2)CCCN1 [Veliparib] (first compound 0.04 µM, partner dose 1.4 µM) | 181%
2 | C=CCNC1=C2C[C@@H](C)C[C@H](OC)[C@H](O)[C@@H](C)/C=C(\C)[C@H](OC(N)=O)[C@@H](OC)/C=C\C=C(/C)C(=O)NC(=CC1=O)C2=O [Tanespimycin] + C#Cc1cccc(Nc2ncnc3cc(OCCOC)c(OCCOC)cc23)c1 [erlotinib] (first compound 0.002 µM, partner dose 0.8 µM) | 98.6%
3 | C=CCNC1=C2C[C@@H](C)C[C@H](OC)[C@H](O)[C@@H](C)/C=C(\C)[C@H](OC(N)=O)[C@@H](OC)/C=C\C=C(/C)C(=O)NC(=CC1=O)C2=O [Tanespimycin] + Clc1ccc(Nc2nnc(Cc3ccncc3)c3ccccc23)cc1 [vatalanib] (first compound 0.002 µM, partner dose 2 µM) | 56%
4 | COCC[n+]1c2c(n(Cc3cnccn3)c1C)C(=O)c1ccccc1C2=O + Nc1cccc2c1CN(C1CCC(=O)NC1=O)C2=O [lenalidomide] (first compound 0.0004 µM, partner dose 1 µM) | 55.6%
5 | C#Cc1cccc(Nc2ncnc3cc(OCCOC)c(OCCOC)cc23)c1 [erlotinib] + C[C@]1(c2nc3c(C(N)=O)cccc3[nH]2)CCCN1 [Veliparib] (first compound 0.8 µM, partner dose 1.4 µM) | 36.8%
6 | CC(=O)c1c(C)c2cnc(Nc3ccc(N4CCNCC4)cn3)nc2n(C2CCCC2)c1=O [palbociclib] + C#Cc1cccc(Nc2ncnc3cc(OCCOC)c(OCCOC)cc23)c1 [erlotinib] (first compound 0.04 µM, partner dose 0.8 µM) | 271%
7 | Nc1cccc2c1CN(C1CCC(=O)NC1=O)C2=O (stereo unspecified) [lenalidomide] + COc1cc(Nc2ncc(F)c(Nc3ccc4c(n3)NC(=O)C(C)(C)O4)n2)cc(OC)c1OC [Tamatinib] (first compound 1 µM, partner dose 0.4 µM) | 120%
8 | C[C@]1(c2nc3c(C(N)=O)cccc3[nH]2)CCCN1 [Veliparib] + CC(C)(C)c1cnc(CSc2cnc(NC(=O)C3CCNCC3)s2)o1 [SNS-032] (first compound 1.4 µM, partner dose 0.01 µM) | 270%
9 | Cc1nc(Nc2ncc(C(=O)Nc3c(C)cccc3Cl)s2)cc(N2CCN(CCO)CC2)n1 [dasatanib] + Nc1cccc2c1CN(C1CCC(=O)NC1=O)C2=O [lenalidomide] (first compound 0.004 µM, partner dose 1 µM) | 102%
10 | CC(=O)c1c(C)c2cnc(Nc3ccc(N4CCNCC4)cn3)nc2n(C2CCCC2)c1=O [palbociclib] + OCc1c[nH]c2ccccc12 [Indole-3-carbinol] (first compound 0.04 µM, partner dose 0.8 µM) | 124%
11 | Clc1ccc(Nc2nnc(Cc3ccncc3)c3ccccc23)cc1 [vatalanib] + COCC[n+]1c2c(n(Cc3cnccn3)c1C)C(=O)c1ccccc1C2=O [YM155] (first compound 2 µM, partner dose 0.0004 µM) | 123%
12 | CC1(C)NC(=O)N(c2ccc([N+](=O)[O-])c(C(F)(F)F)c2)C1=O [nilutamide] + O=C(Nc1cccc(Cl)c1)Nc1ncc(CCNc2ncnc3ccsc23)s1 [SNS314] (first compound 1 µM, partner dose 0.0008 µM) | 52.8%
13 | Nc1cccc2c1CN(C1CCC(=O)NC1=O)C2=O (stereo unspecified) [lenalidomide] + C[C@]1(c2nc3c(C(N)=O)cccc3[nH]2)CCCN1 [Veliparib] (first compound 1 µM, partner dose 1.4 µM) | 191%
14 | OCc1c[nH]c2ccccc12 [Indole-3-carbinol] + COc1ccc(Cl)c(Nc2nc3ccccc3nc2NS(=O)(=O)c2cccc(NC(=O)C(C)(C)N)c2)c1 [XL147] (first compound 0.8 µM, partner dose 0.8 µM) | 69.9%
15 | CC(=O)c1c(C)c2cnc(Nc3ccc(N4CCNCC4)cn3)nc2n(C2CCCC2)c1=O [palbociclib] + Clc1ccc(Nc2nnc(Cc3ccncc3)c3ccccc23)cc1 [vatalanib] (first compound 0.04 µM, partner dose 2 µM) | 128%
16 | Cn1nnc2c(C(N)=O)ncn2c1=O [temozolomide] + C[C@@H]1CCN(C(=O)CC#N)C[C@@H]1N(C)c1ncnc2[nH]ccc12 [CP690550] (first compound 2 µM, partner dose 1 µM) | 70.6%

Part of the list above, reformatted.
Row	Structure (SMILES)	cleaved PARP positive nuclei fraction
5	C#Cc1cccc(Nc2ncnc3cc(OCCOC)c(OCCOC)cc23)c1 [erlotinib] + C[C@]1(c2nc3c(C(N)=O)cccc3[nH]2)CCCN1 [Veliparib] (first compound 0.8 µM, partner dose 1.4 µM)	36.8%
6	CC(=O)c1c(C)c2cnc(Nc3ccc(N4CCNCC4)cn3)nc2n(C2CCCC2)c1=O [palbociclib] + C#Cc1cccc(Nc2ncnc3cc(OCCOC)c(OCCOC)cc23)c1 [erlotinib] (first compound 0.04 µM, partner dose 0.8 µM)	271%

Additional entries follow.

Row | Structure (SMILES) | cleaved PARP positive nuclei fraction
17 | Cc1nc(Nc2ncc(C(=O)Nc3c(C)cccc3Cl)s2)cc(N2CCN(CCO)CC2)n1 [dasatanib] + Cn1nnc2c(C(N)=O)ncn2c1=O [temozolomide] (first compound 0.004 µM, partner dose 2 µM) | 256%
18 | OCc1c[nH]c2ccccc12 [Indole-3-carbinol] + COCC[n+]1c2c(n(Cc3cnccn3)c1C)C(=O)c1ccccc1C2=O [YM155] (first compound 0.8 µM, partner dose 0.0004 µM) | 44.4%
19 | Clc1ccc(Nc2nnc(Cc3ccncc3)c3ccccc23)cc1 [vatalanib] + C=CCn1c(=O)c2cnc(Nc3ccc(N4CCN(C)CC4)cc3)nc2n1-c1cccc(C(C)(C)O)n1 [MK1775] (first compound 2 µM, partner dose 0.02 µM) | 198%
20 | C#Cc1cccc(Nc2ncnc3cc(OCCOC)c(OCCOC)cc23)c1 [erlotinib] + COCC[n+]1c2c(n(Cc3cnccn3)c1C)C(=O)c1ccccc1C2=O [YM155] (first compound 0.8 µM, partner dose 0.0004 µM) | 85%
21 | Cc1nc(Nc2ncc(C(=O)Nc3c(C)cccc3Cl)s2)cc(N2CCN(CCO)CC2)n1 [dasatanib] + Cn1c(Nc2ccc(C(F)(F)F)cc2)nc2cc(Oc3ccnc(-c4ncc(C(F)(F)F)[nH]4)c3)ccc21 [CHIR265] (first compound 0.004 µM, partner dose 0.08 µM) | 64.8%
22 | CC(C)(C)c1cnc(CSc2cnc(NC(=O)C3CCNCC3)s2)o1 + Cc1cc(N2CCOCC2)cc2[nH]c(-c3c(NC[C@@H](O)c4cccc(Cl)c4)cc[nH]c3=O)nc12 [BMS536924] (first compound 0.01 µM, partner dose 0.2 µM) | 132%
23 | OCc1c[nH]c2ccccc12 [Indole-3-carbinol] + Nc1cccc2c1CN(C1CCC(=O)NC1=O)C2=O [lenalidomide] (first compound 0.8 µM, partner dose 1 µM) | 58.7%
24 | Cn1c(Nc2ccc(C(F)(F)F)cc2)nc2cc(Oc3ccnc(-c4ncc(C(F)(F)F)[nH]4)c3)ccc21 + Nc1cccc2c1CN(C1CCC(=O)NC1=O)C2=O [lenalidomide] (first compound 0.08 µM, partner dose 1 µM) | 383%
25 | Clc1ccc(Nc2nnc(Cc3ccncc3)c3ccccc23)cc1 [vatalanib] + Cc1nc(Nc2ncc(C(=O)Nc3c(C)cccc3Cl)s2)cc(N2CCN(CCO)CC2)n1 [dasatanib] (first compound 2 µM, partner dose 0.004 µM) | 181%
26 | OCc1c[nH]c2ccccc12 [Indole-3-carbinol] + O=S(=O)(c1ccccc1)N(CC(F)(F)F)c1ccc(C(O)(C(F)(F)F)C(F)(F)F)cc1 [T0901317] (first compound 0.8 µM, partner dose 1.4 µM) | 133%
27 | C=CCNC1=C2C[C@@H](C)C[C@H](OC)[C@H](O)[C@@H](C)/C=C(\C)[C@H](OC(N)=O)[C@@H](OC)/C=C\C=C(/C)C(=O)NC(=CC1=O)C2=O [Tanespimycin] + Nc1cccc2c1CN(C1CCC(=O)NC1=O)C2=O [lenalidomide] (first compound 0.002 µM, partner dose 1 µM) | 134%
28 | C=CCNC1=C2C[C@@H](C)C[C@H](OC)[C@H](O)[C@@H](C)/C=C(\C)[C@H](OC(N)=O)[C@@H](OC)/C=C\C=C(/C)C(=O)NC(=CC1=O)C2=O [Tanespimycin] + OCc1c[nH]c2ccccc12 [Indole-3-carbinol] (first compound 0.002 µM, partner dose 0.8 µM) | 112%
29 | C=CCNC1=C2C[C@@H](C)C[C@H](OC)[C@H](O)[C@@H](C)/C=C(\C)[C@H](OC(N)=O)[C@@H](OC)/C=C\C=C(/C)C(=O)NC(=CC1=O)C2=O [Tanespimycin] + CC(=O)c1c(C)c2cnc(Nc3ccc(N4CCNCC4)cn3)nc2n(C2CCCC2)c1=O [palbociclib] (first compound 0.002 µM, partner dose 0.04 µM) | 170%
30 | C#Cc1cccc(Nc2ncnc3cc(OCCOC)c(OCCOC)cc23)c1 [erlotinib] + Cn1c(Nc2ccc(C(F)(F)F)cc2)nc2cc(Oc3ccnc(-c4ncc(C(F)(F)F)[nH]4)c3)ccc21 [CHIR265] (first compound 0.8 µM, partner dose 0.08 µM) | 264%
31 | C#Cc1cccc(Nc2ncnc3cc(OCCOC)c(OCCOC)cc23)c1 [erlotinib] + Cn1nnc2c(C(N)=O)ncn2c1=O [temozolomide] (first compound 0.8 µM, partner dose 2 µM) | 81.8%
